According to the odorant receptor screen of Mainland et al. (2015):
Several values for one entry are separate records, joined by “and”; a condition that tells them apart may be missing. Identical values can stand only once. The list shows a part of the results. Single wells; the ratio to wells without odorant was worked out here, and repeats agree poorly.

Each compound was assayed on OR6K2 clone 1041 (assay: odorant receptor activation (CRE luciferase / Renilla) (fold of no-odor wells); higher = more activation). Conditions: 100 µM.
`CCCCCC(C)=O` [2-heptanone] was tested, and the odorant receptor activation was 0.58. In the case of `CCCCCCC=O` [heptaldehyde], the odorant receptor activation is reported as 1.07 and 2.38. `COc1cc(C)ccc1O` [2-methoxy-4-methylphenol] was tested, and the odorant receptor activation was 1.84. Work on `O=C1CCCCCCCCCCCCCCO1` [pentadecalactone] yielded an odorant receptor activation of 1.08. With `CC(C)(C)c1ccc(CCC=O)cc1` [bourgeonal] the odorant receptor activation was 0.967. Work on `CCCCCCOC(=O)CCC` [hexyl butyrate] yielded an odorant receptor activation of 0.654. Compound `CC12C=CCC1C1CCC3=CC(=O)CCC3(C)C1CC2` (centres undefined) [androstadienone] has an odorant receptor activation of 3.33. `CC12CCC(CC1)C(C)(C)O2` [cineole] was tested, and the odorant receptor activation was 0.878. Compound `CC1=NC(C)SC1C` (centres undefined) has an odorant receptor activation of 0.88. `CCCC(=O)O` [butyric acid] showed an odorant receptor activation of 1.29. `COc1ccccc1O` [guaiacol] gave an odorant receptor activation of 4.5. `O=C1CCCCC1` [Cyclohexanone] gave an odorant receptor activation of 0.871. `CCCCCCCOC(C)=O` [heptyl acetate] was tested, and the odorant receptor activation was 0.947. `CC(=O)c1ccccc1` [acetophenone] was tested, and the odorant receptor activation was 1.22. In the case of `CCCCCOC(C)=O` [n-amyl acetate], the odorant receptor activation is reported as 1.27. `CCCCCCCCC=O` [nonyl aldehyde] showed an odorant receptor activation of 0.981. `CC1COCc2cc3c(cc21)C(C)(C)C(C)C3(C)C` (centres undefined) [galaxolide] gave an odorant receptor activation of 4.15. `CC(C)CC(=O)O` [isovaleric acid] gave an odorant receptor activation of 1. In the case of `CC(C)C=O` [isobutyraldehyde], the odorant receptor activation is reported as 1.07. Compound `CCCCCCCC=O` [octyl aldehyde] has an odorant receptor activation of 1.23. Work on `CC1=CCC(C(C)(C)O)CC1` (centres undefined) [terpineol] yielded an odorant receptor activation of 1.26. For `CC12C=CCC1C1CCC3CC(=O)CCC3(C)C1CC2` (centres undefined) [androstenone], the odorant receptor activation was 1.68. Compound `CC=Cc1ccc(O)c(OC)c1` [isoeugenol] has an odorant receptor activation of 1.5. With `CC/C=C\CCO` [cis-3-hexen-1-ol] the odorant receptor activation was 1.17. Compound `CCCCCCCCCCC=O` [undecanal] has an odorant receptor activation of 1.09. In the case of `COC(=O)c1ccccc1` [methyl benzoate], the odorant receptor activation is reported as 1.57. `C=C(C)C1CC=CCC1` (centres undefined) [r-limonene] was tested, and the odorant receptor activation was 1.18 and 0.914.

The compounds below were run on OR6K3 P228S/P248L clone 1045 in the same assay as above. Conditions: 100 µM.
`CCCCCC(C)=O` [2-heptanone] was tested, and the odorant receptor activation was 0.492. `CCCCCCC=O` [heptaldehyde] was tested, and the odorant receptor activation was 1.04 and 1. `COc1cc(C)ccc1O` [2-methoxy-4-methylphenol] was tested, and the odorant receptor activation was 1.76. Work on `O=C1CCCCCCCCCCCCCCO1` [pentadecalactone] yielded an odorant receptor activation of 1.31. In the case of `CC(C)(C)c1ccc(CCC=O)cc1` [bourgeonal], the odorant receptor activation is reported as 0.865. With `CCCCCCOC(=O)CCC` [hexyl butyrate] the odorant receptor activation was 1.68. `CC12C=CCC1C1CCC3=CC(=O)CCC3(C)C1CC2` (centres undefined) [androstadienone] showed an odorant receptor activation of 1.34. `CC12CCC(CC1)C(C)(C)O2` [cineole] showed an odorant receptor activation of 0.79. Work on `CC1=NC(C)SC1C` (centres undefined) yielded an odorant receptor activation of 0.974. In the case of `CCCC(=O)O` [butyric acid], the odorant receptor activation is reported as 1.17. Compound `COc1ccccc1O` [guaiacol] has an odorant receptor activation of 1.25. `O=C1CCCCC1` [Cyclohexanone] showed an odorant receptor activation of 0.507. Compound `CCCCCCCOC(C)=O` [heptyl acetate] has an odorant receptor activation of 1.08. Work on `CC(=O)c1ccccc1` [acetophenone] yielded an odorant receptor activation of 1.06. `CCCCCOC(C)=O` [n-amyl acetate] showed an odorant receptor activation of 1.1. `CCCCCCCCC=O` [nonyl aldehyde] showed an odorant receptor activation of 1.02. `CC1COCc2cc3c(cc21)C(C)(C)C(C)C3(C)C` (centres undefined) [galaxolide] showed an odorant receptor activation of 5.81. `CC(C)CC(=O)O` [isovaleric acid] gave an odorant receptor activation of 1.43. In the case of `CC(C)C=O` [isobutyraldehyde], the odorant receptor activation is reported as 1.04. For `CCCCCCCC=O` [octyl aldehyde], the odorant receptor activation was 1.36. With `CC1=CCC(C(C)(C)O)CC1` (centres undefined) [terpineol] the odorant receptor activation was 1.32. `CC12C=CCC1C1CCC3CC(=O)CCC3(C)C1CC2` (centres undefined) [androstenone] was tested, and the odorant receptor activation was 0.986. In the case of `CC=Cc1ccc(O)c(OC)c1` [isoeugenol], the odorant receptor activation is reported as 1.09. `CC/C=C\CCO` [cis-3-hexen-1-ol] showed an odorant receptor activation of 0.985. For `CCCCCCCCCCC=O` [undecanal], the odorant receptor activation was 1.23. `COC(=O)c1ccccc1` [methyl benzoate] was tested, and the odorant receptor activation was 1.07. In the case of `C=C(C)C1CC=CCC1` (centres undefined) [r-limonene], the odorant receptor activation is reported as 1.31 and 1.29.
